# Among all 320,000 compounds or so, about 2,100 (0.66%) were called active. Inconclusive means that the source gave no clear call. Such entries were picked first, then a sample of the others. Calls follow the shape of the dose curve; as a rule, active = well fitted inhibition curve with a large enough effect in the signal ratio, with a control signal flat (not every such curve was filed as active); inconclusive = small, poorly fitted or top-dose-only effect, or effect the other way, or a change in a side signal; inactive = flat fitted curve, though single readings scatter; the % refers to the signal ratio. Where the call is inconclusive, the potency comes from a doubtful curve fit.
# Test: qHTS Assay for Lipid Storage Modulators in Drosophila S3 Cells
# Settings: BODIPY lipid droplet fluorescence, 18-24 h, cells fed with added oleic acid; lipid storage change, negative = inhibition: at 46.1 µM (top of the series) unless noted
# Outline: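 Laser-scanning cytometry quantifies lipid droplet accumulation (500–530 nm total intensity; droplet/cell object ratio) in oleic acid-fed (400 uM added) Drosophila S3 cells treated with a concentration series. 20 uM Triacsin C defined 100% inhibition.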
# % is scaled to controls: 0 for no effect and ±100 for the full control effect; potency is read from the fitted curve at half-maximal effect.
SMILES,"lipid storage change, negative = inhibition",Potency
O=C(NNC(=O)C1CC(c2cccnc2)=NO1)Nc1ccccc1F (stereo unspecified),inconclusive: 10.2%,
O=C(CSCc1ccco1)c1ccc(Cl)s1,inconclusive: 12.3%,
C=CCOc1ccc2c(c1)c(S(=O)(=O)c1ccc(C)cc1)cn2COC,inconclusive: 10.3%,
CC1CC1C(=O)OCC(=O)Nc1ncc(Cl)cc1Cl (stereo unspecified),inconclusive,
CC(C)CC1c2[nH]c3ccccc3c2CCN1C(=O)c1cnccn1 (stereo unspecified),inconclusive: 10%,
CCOC(=O)CSc1ncc(OC)c(=O)[nH]1,,"inconclusive: 29.1 µM [cytotoxic, single point]"
CCCc1[nH]c2ccc(C(=O)OC)cc2c1CCC,,"inconclusive: 25.9 µM [activator, partial curve, poor fit]"
Cc1cccc(NC(=O)CSc2n[nH]c(-c3cccnc3)n2)c1,inconclusive: 0.697%,
Cc1c(C)n(Cc2ccccc2)c2ncnc(NCCCO)c12,inactive: -4.82%,
CCn1c(C)c(C)c2cc(C(=O)NCCCN3CCCC3)ccc21,inconclusive: 50.1%,
O=c1c2ccccc2nnn1CSc1nnc(-c2cccs2)n1Cc1ccccc1,,"inconclusive: 6.51 µM [activator, single point]"
CCOc1ccc(C2/C(=C(\O)c3ccc4c(c3)OCCO4)C(=O)C(=O)N2CCCN2CCOCC2)cc1 (stereo unspecified),,"inconclusive: 29.1 µM [activator, single point]"
CC(=O)Nc1ccc(S(=O)(=O)NCC(=O)N2CCN(S(=O)(=O)c3cccs3)CC2)cc1,inconclusive: 86%,
Cc1ccc(C)c(NC(=O)c2ccc3nccnc3c2)c1,,"inconclusive: 29.1 µM [activator, partial curve, poor fit]"
CS(=O)(=O)N(CC(=O)N1CCCC1)c1cccc(Cl)c1,inconclusive: -0.22%,
Cc1ccccc1NC(=O)c1[nH]cnc1C(=O)NN,,"inconclusive: 25.9 µM [activator, single point]"
Cc1cc(C)c(C(=O)CC(=O)c2ccccc2Cl)c(O)c1,inconclusive: -19.8%,
CCOc1ccc(S(=O)(=O)N2CCCCC2)cc1NC(=O)CN1C(=O)NC(C)(c2ccccc2)C1=O (stereo unspecified),,"inconclusive: 2.91 µM [activator, partial curve]"
COC(=O)c1sc(-c2ccc(C(C)(C)C)cc2)cc1NC(=O)CSCC(=O)O,inconclusive: 41.8%,
CCc1ccc(CNC(=O)C2CCCN(S(=O)(=O)N(CC)c3ccccc3)C2)cc1 (stereo unspecified),,"inconclusive: 6.51 µM [activator, single point]"
O=C(NC1CCCCC1)c1ccccc1NC(=S)NC(=O)C1CC1,inconclusive: 9.91%,
N#Cc1ccc2c(c1)C[C@]1(CCCCN3C(=O)c4ccccc4C3=O)Oc3c(c(=O)oc4ccccc34)C2O1,inconclusive: 13.6% [at 9.22 µM],
CCOc1ccc(N(CC(=O)N2CCN(C(=O)CN(c3ccc(OCC)cc3)S(C)(=O)=O)CC2)S(C)(=O)=O)cc1,,"inconclusive: 29.1 µM [activator, single point]"
O=C(NCCCN1CCOCC1)/C(=C/c1ccc(F)cc1)NC(=O)c1ccccc1,inconclusive: -1.04%,
Cc1cccc(NC(=O)c2cc(S(=O)(=O)c3ccccc3)ccc2Cl)c1,inconclusive: -19.7%,
CCCCN1C(=O)C(=O)N(CC(=O)Nc2sc(CC)cc2C(=O)OCC)C1=O,,"inconclusive: 7.31 µM [activator, partial curve]"

# Arranged by heavy-atom count (rising): three of the compounds above
SMILES,"lipid storage change, negative = inhibition",Potency
CCCc1[nH]c2ccc(C(=O)OC)cc2c1CCC,,"inconclusive: 25.9 µM [activator, partial curve, poor fit]"
Cc1ccc(C)c(NC(=O)c2ccc3nccnc3c2)c1,,"inconclusive: 29.1 µM [activator, partial curve, poor fit]"
Cc1c(C)n(Cc2ccccc2)c2ncnc(NCCCO)c12,inactive: -4.82%,

# Continuation.

SMILES,"lipid storage change, negative = inhibition",Potency
CCOC(=O)C1=C(C)NC(=O)NC1c1ccc(N(CC)CC)cc1 (stereo unspecified),,"inconclusive: 23.1 µM [cytotoxic, partial curve]"
CCCCOC(=O)Nc1ccc(C)c(Cl)c1,inconclusive: -45.2%,
COc1ccc(C(=O)N/C(=C\c2cn(S(=O)(=O)N(C)C)c3ccccc23)C(=O)NC(C)C)cc1,inconclusive: -8.43%,
O=C(NCC(c1cccs1)N1CCOCC1)c1ccco1 (stereo unspecified),inconclusive: -5.44%,
CC(C)CC1NC(=S)N(C2CCCCC2)C1=O (stereo unspecified),inconclusive: -3.84%,
Cc1cc(NCCC(C)C)n2nc(C)c(-c3ccccc3)c2n1,,"inconclusive: 0.461 µM [activator, single point]"
Cc1ccc(S(=O)(=O)N2CCCc3ccccc32)cc1C,inconclusive: 6.18%,
N#Cc1cn(Cc2ccccc2)c(=O)[nH]c1=O,inactive: -14.4%,
CN(C)c1ccc(C(=S)N2CCOCC2)cc1Br,inconclusive: -42.1%,
CC(c1ccccc1)C1CC(=O)N(Cc2ccco2)C1=O (stereo unspecified),inconclusive: -118%,
OC(CNCCc1ccc(Cl)cc1)COCc1ccco1 (stereo unspecified),,"inconclusive: 6.51 µM [falling, single point]"
Cc1cc(=O)oc2ccc(OCc3ccccc3)cc12,inconclusive: -4.86%,
O=C(c1ccccn1)N(CC1CCCO1)C1(C(=O)NC2CCCCC2)CCCCC1 (stereo unspecified),inactive: 8.55%,
COc1ccccc1NC(=O)N1CCCC1C(=O)Nc1ccc2c(c1)OCCO2 (stereo unspecified),inconclusive: -53%,
O=C(CC(SCCO)c1ccc([N+](=O)[O-])cc1)c1ccco1 (stereo unspecified),inconclusive: -63.9%,
COc1ccc(C(=S)N2CCN(C)CC2)cc1,,"inconclusive: 29.1 µM [falling, single point]"
N/C(=N\OC(=O)N1CCOCC1)c1ccccc1,inconclusive: -13%,
O=C(CSc1n[nH]c(-c2ccco2)n1)N1c2ccccc2Sc2ccccc21,,"inconclusive: 14.6 µM [falling, single point]"
OC(CNCc1ccccc1Cl)C(F)(F)F (stereo unspecified),inconclusive: -27.8%,
COc1ccc2[nH]c(C)c(CCNC(=S)Nc3cccc(C)c3C)c2c1,inconclusive: -9.09%,
O=C(CN(Cc1ccccc1Cl)C(=O)c1csnn1)NCc1ccc(F)cc1,inconclusive: 5.76%,
CC(=O)c1cccc(NC(=O)C2CCCC2)c1,inconclusive: -14.2%,
CCOc1ccc2ccccc2c1/C=N/NC(=O)c1cc(C)[nH]n1,,"inconclusive: 6.51 µM [activator, single point]"
CC(C)(C)Cc1nnc(NC(=O)c2ccc([N+](=O)[O-])cc2)s1,inconclusive: -1.73%,
CCCCC1(CO)C(=O)N(c2ccccc2)N(c2ccccc2)C1=O,inconclusive: 15.3%,

# — PubChem BioAssay AID2685 (National Center for Advancing Translational Sciences (NCATS), 2010)
